US4112105A, “Anti-inflammatory 3-(substituted-amino)-2,1-benzisothiazoles” (Sterling Drug Inc., priority 1977, dated 1978)
“And” between values parts separate entries of the source, which are not always exact repeats. Equal values may be shown once. The name of at least one read-out is uncertain.

How the values were obtained:
[1] = inhibition of carrageenin-induced foot edema test; type: in vivo; details: oral
Protocol: Anti-inflammatory activity was determined using (1) the inhibition of carrageenin-induced foot edema test essentially described by Van Arman et al., J. Pharmocol. Exptl. Therap. 150, 328 (1965) as a modification of the procedure of Winter et al., Proc. Soc. Exp. Biol. and Med. 111, 544 (1962) and (2) a modification of the inhibition of adjuvant-induced arthritis test described by Pearson, J. Chronic Diseases 16, 863 (1963) and Glenn et al., Am. J. Vet. Res. 26, 1180 (1965).
Representative examples of the compounds of this invention have been tested in the carrageenin edema and adjuvant arthritis tests as described hereinabove and found to have anti-inflammatory activity. Test data, given as percent inhibition at a dose expressed in millimoles (mMole/kg) are presented hereinbelow. All test compounds were administered orally.
The data for a number of examples are presented in several separate groups each representing the test results wherein anti-inflammatory activity was measured at one or more dose levels against a single set of controls.

[2] = inhibition of adjuvant-induced arthritis test; type: in vivo; details: oral, 0.12 mMole/kg
Protocol: Anti-inflammatory activity was determined using (1) the inhibition of carrageenin-induced foot edema test essentially described by Van Arman et al., J. Pharmocol. Exptl. Therap. […] J. Vet.
All test compounds were administered orally.

Row | SMILES | Carrageenin edema % inhibition ([1]; 0.08 mMole/kg) | Carrageenin edema % inhibition ([1]; 0.324 mMole/kg) | Carrageenin edema % inhibition ([1]; 0.02 mMole/kg) | Adjuvant arthritis % inhibition [2]
1 | CCN(CC)CCCC(C)Nc1snc2cc(Cl)ccc12 (stereo not drawn) [Example 1D, 6-chloro-3-[4-(diethylamino)-1-methylbutylamino]-2,1-benzisothiazole] | 15% and 24% | 47% and 43% |  | 
2 | CCN(CC)CCCC(C)Nc1snc2cc(Cl)ccc12 (stereo not drawn) [Example 1E, 6-chloro-3-[4-(diethylamino)-1-methylbutylamino]-2,1-benzisothiazole diphosphate] |  |  | 2% and 0% | 69% and 52% and 60% and 54% and 62%
3 | CCN(CC)Cc1cc(Nc2snc3ccc(Cl)cc23)ccc1O [Example 14, 5-chloro-3-{[3-(diethylamino)methyl-4-hydroxyphenyl]amino}-2,1-benzisothiazole] | 31% | 58% |  | 
